Assay results reported in the supplement of paper PMC10849652.
This is one part of the list.

The chains behind the UniProt entries cited, without tags or fusion partners. Where a name states a change or a piece, a line headed by the entry shows the natural chain unless it says otherwise.
UniProt H0YH80: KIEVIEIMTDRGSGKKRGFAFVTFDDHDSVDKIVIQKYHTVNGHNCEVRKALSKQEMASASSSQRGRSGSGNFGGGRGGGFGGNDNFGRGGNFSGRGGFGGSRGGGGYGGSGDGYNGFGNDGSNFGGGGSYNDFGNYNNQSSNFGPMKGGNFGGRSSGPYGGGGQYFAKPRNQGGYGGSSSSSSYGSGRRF
UniProt Q6YN16: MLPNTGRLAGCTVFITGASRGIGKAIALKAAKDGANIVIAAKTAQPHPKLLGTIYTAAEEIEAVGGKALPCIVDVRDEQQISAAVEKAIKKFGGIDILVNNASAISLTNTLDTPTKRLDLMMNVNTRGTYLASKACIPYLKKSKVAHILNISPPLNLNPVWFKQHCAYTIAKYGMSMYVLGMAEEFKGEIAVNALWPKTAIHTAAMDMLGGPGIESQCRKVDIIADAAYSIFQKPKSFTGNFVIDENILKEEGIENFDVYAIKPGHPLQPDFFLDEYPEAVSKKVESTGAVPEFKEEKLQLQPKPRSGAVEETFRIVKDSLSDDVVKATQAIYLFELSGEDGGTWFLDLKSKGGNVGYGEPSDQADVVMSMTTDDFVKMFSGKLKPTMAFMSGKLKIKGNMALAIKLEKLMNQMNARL
UniProt P34932: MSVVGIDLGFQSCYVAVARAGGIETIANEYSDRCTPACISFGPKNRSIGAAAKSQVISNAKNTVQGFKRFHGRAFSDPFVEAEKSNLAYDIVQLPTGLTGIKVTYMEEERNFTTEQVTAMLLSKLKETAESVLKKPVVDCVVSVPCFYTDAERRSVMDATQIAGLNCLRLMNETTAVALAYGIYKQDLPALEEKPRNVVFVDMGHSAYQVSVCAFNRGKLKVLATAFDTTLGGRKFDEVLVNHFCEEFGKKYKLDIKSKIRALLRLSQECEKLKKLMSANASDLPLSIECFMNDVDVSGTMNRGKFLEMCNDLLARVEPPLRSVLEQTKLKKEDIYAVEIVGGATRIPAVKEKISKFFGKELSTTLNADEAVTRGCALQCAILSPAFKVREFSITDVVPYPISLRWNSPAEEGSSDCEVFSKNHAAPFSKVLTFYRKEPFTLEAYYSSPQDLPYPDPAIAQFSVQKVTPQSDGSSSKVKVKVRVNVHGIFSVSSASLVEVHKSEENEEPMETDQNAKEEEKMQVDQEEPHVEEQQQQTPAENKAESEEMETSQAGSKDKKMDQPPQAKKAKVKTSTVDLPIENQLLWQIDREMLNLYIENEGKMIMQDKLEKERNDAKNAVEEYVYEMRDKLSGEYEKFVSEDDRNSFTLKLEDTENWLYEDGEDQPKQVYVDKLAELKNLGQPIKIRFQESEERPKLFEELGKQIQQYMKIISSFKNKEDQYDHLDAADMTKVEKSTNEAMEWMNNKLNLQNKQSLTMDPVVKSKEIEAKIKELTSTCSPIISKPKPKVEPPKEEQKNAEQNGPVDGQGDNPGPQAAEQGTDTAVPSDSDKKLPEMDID
UniProt Q00839, whole entry, looked up: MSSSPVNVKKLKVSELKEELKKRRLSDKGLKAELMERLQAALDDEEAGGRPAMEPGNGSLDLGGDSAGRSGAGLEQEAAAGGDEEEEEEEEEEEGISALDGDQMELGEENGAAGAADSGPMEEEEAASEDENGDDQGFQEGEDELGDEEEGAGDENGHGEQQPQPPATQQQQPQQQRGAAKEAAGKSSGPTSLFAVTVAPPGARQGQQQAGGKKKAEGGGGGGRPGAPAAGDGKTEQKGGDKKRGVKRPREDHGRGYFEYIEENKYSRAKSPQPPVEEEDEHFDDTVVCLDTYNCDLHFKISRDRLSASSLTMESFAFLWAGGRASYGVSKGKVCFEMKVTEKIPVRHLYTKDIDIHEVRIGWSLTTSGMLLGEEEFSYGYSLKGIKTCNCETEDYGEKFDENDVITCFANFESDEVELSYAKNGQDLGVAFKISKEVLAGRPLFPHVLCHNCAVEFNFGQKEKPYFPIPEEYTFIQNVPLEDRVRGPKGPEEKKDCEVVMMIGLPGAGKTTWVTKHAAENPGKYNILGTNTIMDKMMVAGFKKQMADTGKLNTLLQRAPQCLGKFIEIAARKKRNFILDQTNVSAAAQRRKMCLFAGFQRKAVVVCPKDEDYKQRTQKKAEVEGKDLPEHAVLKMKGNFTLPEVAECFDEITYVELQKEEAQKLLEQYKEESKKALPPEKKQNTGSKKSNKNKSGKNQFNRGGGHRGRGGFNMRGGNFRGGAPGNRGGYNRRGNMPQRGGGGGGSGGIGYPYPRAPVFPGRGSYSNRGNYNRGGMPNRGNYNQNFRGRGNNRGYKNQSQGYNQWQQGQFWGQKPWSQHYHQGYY
UniProt P52272: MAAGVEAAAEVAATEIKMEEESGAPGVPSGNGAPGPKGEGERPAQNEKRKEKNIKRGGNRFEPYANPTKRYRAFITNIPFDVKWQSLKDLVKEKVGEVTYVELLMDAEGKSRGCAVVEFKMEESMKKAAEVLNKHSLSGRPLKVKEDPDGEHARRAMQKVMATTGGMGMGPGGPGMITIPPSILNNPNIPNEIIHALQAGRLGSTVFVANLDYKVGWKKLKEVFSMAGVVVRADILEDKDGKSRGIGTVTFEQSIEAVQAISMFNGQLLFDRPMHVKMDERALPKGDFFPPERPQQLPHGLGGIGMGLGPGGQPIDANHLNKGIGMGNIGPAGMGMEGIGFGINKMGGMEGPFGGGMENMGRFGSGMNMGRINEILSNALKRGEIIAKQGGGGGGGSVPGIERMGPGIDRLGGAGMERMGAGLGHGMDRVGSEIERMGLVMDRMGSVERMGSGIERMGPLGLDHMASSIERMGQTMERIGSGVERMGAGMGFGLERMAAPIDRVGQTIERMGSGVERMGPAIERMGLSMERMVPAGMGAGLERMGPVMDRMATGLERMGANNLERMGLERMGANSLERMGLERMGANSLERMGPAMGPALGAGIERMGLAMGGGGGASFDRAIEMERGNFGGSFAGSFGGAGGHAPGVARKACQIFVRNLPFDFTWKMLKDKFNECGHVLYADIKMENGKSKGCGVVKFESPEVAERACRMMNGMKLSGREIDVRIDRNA
UniProt Q7LGA3: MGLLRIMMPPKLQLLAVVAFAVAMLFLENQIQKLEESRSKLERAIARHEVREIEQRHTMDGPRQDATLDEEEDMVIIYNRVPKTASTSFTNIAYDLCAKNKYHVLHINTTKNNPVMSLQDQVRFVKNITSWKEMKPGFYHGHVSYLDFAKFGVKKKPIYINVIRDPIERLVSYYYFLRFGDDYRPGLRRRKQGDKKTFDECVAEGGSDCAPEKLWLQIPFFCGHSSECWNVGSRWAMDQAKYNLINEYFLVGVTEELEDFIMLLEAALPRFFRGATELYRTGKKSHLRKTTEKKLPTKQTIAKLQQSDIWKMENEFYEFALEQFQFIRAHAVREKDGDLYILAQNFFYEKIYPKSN
UniProt Q9BTY7: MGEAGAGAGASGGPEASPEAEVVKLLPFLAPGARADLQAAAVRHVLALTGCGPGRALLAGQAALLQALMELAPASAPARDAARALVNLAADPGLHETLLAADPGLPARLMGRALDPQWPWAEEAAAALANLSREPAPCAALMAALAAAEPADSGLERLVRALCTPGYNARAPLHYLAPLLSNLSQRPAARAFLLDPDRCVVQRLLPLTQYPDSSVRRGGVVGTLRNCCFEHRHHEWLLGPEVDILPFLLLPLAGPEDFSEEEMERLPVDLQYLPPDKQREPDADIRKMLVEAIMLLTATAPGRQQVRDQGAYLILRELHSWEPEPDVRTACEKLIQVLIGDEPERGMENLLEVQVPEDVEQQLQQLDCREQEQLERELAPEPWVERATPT
UniProt P09429: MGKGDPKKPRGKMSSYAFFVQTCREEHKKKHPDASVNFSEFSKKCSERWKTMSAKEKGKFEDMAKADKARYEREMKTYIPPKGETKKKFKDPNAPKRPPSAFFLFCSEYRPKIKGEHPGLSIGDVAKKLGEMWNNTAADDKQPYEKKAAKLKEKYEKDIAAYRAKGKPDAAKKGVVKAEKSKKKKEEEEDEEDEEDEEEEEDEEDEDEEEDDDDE
UniProt P08397: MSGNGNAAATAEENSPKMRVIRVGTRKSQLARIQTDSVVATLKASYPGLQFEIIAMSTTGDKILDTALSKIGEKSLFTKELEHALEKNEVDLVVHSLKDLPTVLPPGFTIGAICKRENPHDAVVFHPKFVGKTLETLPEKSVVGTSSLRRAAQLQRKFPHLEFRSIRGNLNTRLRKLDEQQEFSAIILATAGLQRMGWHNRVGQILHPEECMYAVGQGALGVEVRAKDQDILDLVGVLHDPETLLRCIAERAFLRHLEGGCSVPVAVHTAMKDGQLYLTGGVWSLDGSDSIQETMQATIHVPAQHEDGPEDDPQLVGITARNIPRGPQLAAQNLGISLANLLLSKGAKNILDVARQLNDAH
UniProt O95757: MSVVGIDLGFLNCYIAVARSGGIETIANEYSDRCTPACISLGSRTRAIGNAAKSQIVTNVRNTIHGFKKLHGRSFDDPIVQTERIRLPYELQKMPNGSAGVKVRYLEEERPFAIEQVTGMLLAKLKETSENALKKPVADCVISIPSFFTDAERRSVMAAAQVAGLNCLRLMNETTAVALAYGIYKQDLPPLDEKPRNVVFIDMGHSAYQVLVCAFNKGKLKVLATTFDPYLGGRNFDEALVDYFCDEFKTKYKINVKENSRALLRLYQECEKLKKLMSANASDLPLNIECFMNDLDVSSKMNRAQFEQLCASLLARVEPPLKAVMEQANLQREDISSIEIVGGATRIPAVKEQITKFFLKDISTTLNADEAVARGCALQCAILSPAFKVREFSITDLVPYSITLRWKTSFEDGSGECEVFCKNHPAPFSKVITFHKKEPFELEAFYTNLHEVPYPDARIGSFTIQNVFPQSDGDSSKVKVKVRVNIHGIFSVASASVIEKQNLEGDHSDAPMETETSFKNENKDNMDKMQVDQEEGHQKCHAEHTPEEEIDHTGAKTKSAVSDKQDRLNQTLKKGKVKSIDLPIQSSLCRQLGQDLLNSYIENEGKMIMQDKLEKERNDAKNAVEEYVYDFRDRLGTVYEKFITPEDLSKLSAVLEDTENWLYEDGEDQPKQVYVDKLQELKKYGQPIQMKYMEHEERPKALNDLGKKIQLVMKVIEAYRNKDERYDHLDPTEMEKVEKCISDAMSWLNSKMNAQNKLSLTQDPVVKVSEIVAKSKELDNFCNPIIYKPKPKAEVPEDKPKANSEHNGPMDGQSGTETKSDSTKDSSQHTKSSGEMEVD
UniProt Q9NX55: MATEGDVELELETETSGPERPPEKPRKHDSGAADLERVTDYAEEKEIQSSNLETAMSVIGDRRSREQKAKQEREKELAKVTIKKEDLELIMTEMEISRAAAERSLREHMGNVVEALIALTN
UniProt O43390: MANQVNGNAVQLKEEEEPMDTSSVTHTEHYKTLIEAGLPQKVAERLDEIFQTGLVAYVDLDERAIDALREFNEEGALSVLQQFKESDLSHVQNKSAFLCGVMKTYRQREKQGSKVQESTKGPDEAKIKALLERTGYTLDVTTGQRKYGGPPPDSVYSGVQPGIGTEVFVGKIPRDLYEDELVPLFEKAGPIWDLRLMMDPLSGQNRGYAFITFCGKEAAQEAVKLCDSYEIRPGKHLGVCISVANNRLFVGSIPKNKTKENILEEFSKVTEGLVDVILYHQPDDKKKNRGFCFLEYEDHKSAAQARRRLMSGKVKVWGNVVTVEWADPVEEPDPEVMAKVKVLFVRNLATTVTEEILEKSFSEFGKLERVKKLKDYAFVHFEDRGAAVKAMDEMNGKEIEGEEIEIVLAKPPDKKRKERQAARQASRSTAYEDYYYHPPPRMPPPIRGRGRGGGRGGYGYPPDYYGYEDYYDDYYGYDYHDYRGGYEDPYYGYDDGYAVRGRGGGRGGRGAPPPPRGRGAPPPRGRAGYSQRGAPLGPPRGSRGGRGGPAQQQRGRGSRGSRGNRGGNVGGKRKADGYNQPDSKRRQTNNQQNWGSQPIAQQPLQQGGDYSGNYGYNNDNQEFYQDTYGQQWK
UniProt P11021: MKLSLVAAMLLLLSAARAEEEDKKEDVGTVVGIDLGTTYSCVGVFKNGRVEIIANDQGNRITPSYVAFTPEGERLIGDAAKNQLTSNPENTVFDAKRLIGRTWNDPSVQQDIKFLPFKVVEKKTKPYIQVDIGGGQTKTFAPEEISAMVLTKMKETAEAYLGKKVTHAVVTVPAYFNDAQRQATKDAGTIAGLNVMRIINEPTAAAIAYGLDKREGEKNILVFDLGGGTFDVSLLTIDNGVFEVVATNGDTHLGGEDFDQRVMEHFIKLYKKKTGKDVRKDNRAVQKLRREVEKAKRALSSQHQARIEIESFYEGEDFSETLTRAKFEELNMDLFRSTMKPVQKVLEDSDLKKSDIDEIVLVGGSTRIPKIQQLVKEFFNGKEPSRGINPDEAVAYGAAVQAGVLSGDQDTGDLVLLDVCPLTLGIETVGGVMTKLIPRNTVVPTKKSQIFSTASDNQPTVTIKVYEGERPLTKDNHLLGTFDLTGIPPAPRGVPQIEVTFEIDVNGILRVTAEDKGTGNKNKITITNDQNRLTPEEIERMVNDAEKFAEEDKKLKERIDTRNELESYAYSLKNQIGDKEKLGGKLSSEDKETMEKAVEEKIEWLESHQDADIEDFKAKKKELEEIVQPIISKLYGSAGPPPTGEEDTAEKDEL

Key:
Experiment in all cases: log2 fold change, soluble protein after heating vs DMSO (PISA); higher = thermal stabilisation; K562 cells, 10 uM, 30 min; active = over 0.2 and 3.5 SD of the protein, either way, in both replicates (recomputed)
[1] = compound: NC(=O)Nc1cc(-c2cccc(F)c2)sc1C(=O)N[C@H]1CCCNC1
Outline: (§1)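 K562 cells (2×10^6 cells/mL) were treated with 10 μM compound for 30 min, and aliquots were heated for 3 min over 48°C-58°C. Pooled aliquots were extracted in PBS with 0.5% NP-40 at 4°C, and the supernatant after 21,000xg for 90 min was measured by TMTpro 16plex LC-MS/MS with channel sums equalised. Reported thermal stability, relative to control samples and from duplicates, is a log2 fold change.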

[2] = compound: NC(=O)c1cnc(N[C@@H]2CCCC[C@@H]2N)nc1Nc1cccc(-n2nccn2)c1
Outline: as §1

[3] = compound: NC1(c2ccc(-c3nc4ccn5c(=O)[nH]nc5c4cc3-c3ccccc3)cc2)CCC1
Outline: as §1

[4] = compound: NCC(=O)Nc1ccc(-n2nc(C(F)(F)F)cc2-c2ccc3c(ccc4ccccc43)c2)cc1
Outline: as §1

[5] = compound: Nc1ccccc1NC(=O)c1ccc(CNC(=O)OCc2cccnc2)cc1 [entinostat]
Outline: as §1

[6] = compound: O=C(CCCCCCC(=O)Nc1ccccc1)NO [vorinostat]
Outline: as §1

[7] = compound: O=C(CCCCCCNC(=O)c1cnc(N(c2ccccc2)c2ccccc2Cl)nc1)NO [citarinostat]
Outline: as §1

[8] = compound: O=C(O)c1ccc2c(c1)nc(Nc1cccc(Cl)c1)c1ccncc12 [silmitasertib]
Outline: as §1

[9] = compound: O=C1NC(=O)C(c2cnc3ccccn23)=C1c1cn2c3c(cc(F)cc13)CN(C(=O)N1CCCCC1)CC2
Outline: as §1

[10] = compound: c1cc(OCCN2CCCCC2)cc(-c2n[nH]c3ccc(-c4nnc[nH]4)cc23)c1
Outline: as §1

[11] = compound: c1cn2cc(-c3ccc4cn[nH]c4c3)nc(Nc3ccc(N4CCOCC4)cc3)c2n1 [entospletinib]
Outline: as §1

Measured: log2 fold change

HPRT1 (UniProt P00492)
inactive: [1] 0.042 | [2] 0.036 | [3] 0.014 | [4] 0.079 | [5] -0.014 | [6] -0.004 | [7] 0.022 | [8] -0.025 | [9] -0.031 | [10] -0.06 | [11] -0.016

HNRNPA1 (UniProt H0YH80)
inactive: [1] 0.111 | [2] 0.142 | [3] 0.532 | [4] 0.385 | [5] -0.125 | [6] -0.031 | [7] -0.16 | [8] 0.04 | [9] 0.303 | [10] -0.179 | [11] 0.208

HSDL2 (UniProt Q6YN16)
inactive: [1] 0.005 | [2] -0.031 | [3] -0.123 | [4] -0.007 | [5] 0.055 | [6] 0.021 | [7] 0.095 | [8] -0.036 | [9] -0.076 | [10] -0.046 | [11] 0.011

HTD2 (UniProt P86397)
inactive: [1] -0.099 | [2] -0.001 | [3] -0.048 | [4] 0.144 | [5] -0.016 | [6] -0.105 | [7] -0.028 | [8] 0.093 | [9] -0.106 | [10] 0.005 | [11] -0.163

HNRNPAB isoform 3 (UniProt Q99729)
inactive: [1] -0.028 | [2] 0.034 | [3] 0.246 | [4] 0.073 | [5] -0.059 | [6] -0.058 | [7] -0.077 | [8] 0.14 | [9] 0.188 | [10] -0.095 | [11] 0.07

HSPA4 (UniProt P34932)
inactive: [1] 0 | [2] -0.004 | [3] -0.05 | [4] -0.015 | [5] 0.006 | [6] -0.001 | [7] 0.036 | [8] 0 | [9] -0.006 | [10] 0.01 | [11] -0.026

HNRNPU (UniProt Q00839)
inactive: [1] -0.075 | [2] -0.079 | [3] -0.014 | [4] -0.007 | [5] 0.075 | [6] 0.13 | [7] 0.038 | [8] 0.048 | [9] 0.145 | [10] -0.248 | [11] -0.039

HINT3 (UniProt Q9NQE9)
inactive: [1] -0.044 | [2] 0.009 | [3] -0.088 | [4] -0.014 | [5] -0.048 | [6] -0.03 | [7] 0.05 | [8] 0.021 | [9] -0.055 | [10] -0.031 | [11] -0.027

HNRNPA2B1 (UniProt P22626)
inactive: [1] -0.025 | [2] 0.086 | [3] 0.401 | [4] 0.081 | [5] -0.037 | [6] 0.015 | [7] -0.123 | [8] 0.322 | [9] 0.196 | [10] -0.175 | [11] 0.119

HKDC1 (UniProt Q2TB90)
inactive: [1] 0.008 | [2] -0.053 | [3] -0.116 | [4] -0.011 | [5] 0.044 | [6] 0.008 | [7] 0.108 | [8] 0.043 | [9] -0.037 | [10] -0.011 | [11] -0.158

HM13 (UniProt Q8TCT9)
inactive: [1] 0.071 | [2] 0.038 | [3] -0.062 | [4] -0.074 | [5] 0.02 | [6] 0.087 | [7] 0.013 | [8] 0.004 | [9] 0.017 | [10] -0.015 | [11] -0.015

HNRNPM (UniProt P52272)
inactive: [1] 0.115 | [2] 0.107 | [3] 0.233 | [4] 0.047 | [5] -0.011 | [6] 0.039 | [7] -0.074 | [8] 0.112 | [9] 0.137 | [10] -0.234 | [11] 0.062

HMGN4 (UniProt O00479)
inactive: [1] 0.735 | [2] 0.386 | [3] 0.504 | [4] 0.297 | [5] 0.249 | [6] 0.013 | [7] 0.144 | [8] -0.358 | [9] 0.491 | [10] 0.4 | [11] -0.068

HS2ST1 (UniProt Q7LGA3)
inactive: [1] 0.011 | [2] 0.007 | [3] -0.022 | [4] 0.067 | [5] -0.014 | [6] 0.029 | [7] -0.008 | [8] 0.066 | [9] 0.022 | [10] -0.059 | [11] 0.03

HGH1 (UniProt Q9BTY7)
inactive: [1] 0.025 | [2] 0.046 | [3] 0.021 | [4] 0.043 | [5] 0.094 | [6] 0.024 | [7] -0.069 | [8] 0.11 | [9] 0.097 | [10] -0.058 | [11] 0.16

HMGB1 (UniProt P09429)
inactive: [1] 0.077 | [2] 0.108 | [3] 0.035 | [4] 0.1 | [5] 0.007 | [6] -0.031 | [7] -0.002 | [8] -0.052 | [9] -0.043 | [10] 0.162 | [11] -0.004

HSPG2 (UniProt P98160)
inactive: [1] 0.01 | [2] -0.078 | [3] -0.039 | [4] 0.019 | [5] -0.04 | [6] -0.011 | [7] 0.058 | [8] -0.039 | [9] 0.057 | [10] -0.114 | [11] 0.007

HMBS (UniProt P08397)
inactive: [1] 0.017 | [2] 0.008 | [3] 0.016 | [4] 0.072 | [5] -0.026 | [6] -0.028 | [7] 0.01 | [8] -0.044 | [9] 0.017 | [10] 0.017 | [11] 0.006

HSD17B11 (UniProt Q8NBQ5)
inactive: [1] -0.038 | [2] -0.013 | [3] -0.072 | [4] -0.007 | [5] -0.009 | [6] -0.046 | [7] 0.079 | [8] -0.013 | [9] -0.009 | [10] -0.014 | [11] -0.061

HSPA4L (UniProt O95757)
inactive: [1] -0.047 | [2] 0.016 | [3] -0.018 | [4] -0.041 | [5] 0.008 | [6] 0.025 | [7] 0.018 | [8] 0.021 | [9] -0.051 | [10] 0.019 | [11] -0.011

HMGN5 (UniProt Q5JSK9)
inactive: [1] -0.202 | [2] -0.295 | [3] -0.249 | [4] -0.303 | [5] -0.199 | [6] 0 | [7] -0.245 | [8] 0.031 | [9] 0.045 | [10] -0.357 | [11] 0.07

HSPA13 (UniProt P48723)
inactive: [1] -0.007 | [2] 0.092 | [3] -0.049 | [4] 0.05 | [5] -0.022 | [6] 0.039 | [7] 0.078 | [8] -0.001 | [9] -0.039 | [10] -0.072 | [11] 0.031

HYPK (UniProt Q9NX55)
inactive: [1] -0.006 | [2] -0.014 | [3] 0.058 | [4] 0.04 | [5] 0.052 | [6] -0.023 | [7] 0.014 | [8] -0.081 | [9] -0.054 | [10] 0.033 | [11] 0.015

HNRNPR isoform 2 (UniProt O43390)
inactive: [1] -0.046 | [2] 0.004 | [3] 0.188 | [4] 0.007 | [5] 0.007 | [6] 0.039 | [7] -0.078 | [8] 0.11 | [9] 0.128 | [10] -0.183 | [11] 0.047

HTRA2 (UniProt O43464)
inactive: [1] 0.025 | [2] -0.057 | [3] -0.063 | [4] 0.038 | [5] -0.002 | [6] 0.07 | [7] 0.025 | [8] -0.001 | [9] -0.035 | [10] -0.026 | [11] -0.003

Looked up one by one from above, 2 records:
HTRA2 (UniProt O43464)
inactive: [1] 0.025 | [2] -0.057 | [3] -0.063 | [4] 0.038 | [5] -0.002 | [6] 0.07 | [7] 0.025 | [8] -0.001 | [9] -0.035 | [10] -0.026 | [11] -0.003

HSPA13 (UniProt P48723)
inactive: [1] -0.007 | [2] 0.092 | [3] -0.049 | [4] 0.05 | [5] -0.022 | [6] 0.039 | [7] 0.078 | [8] -0.001 | [9] -0.039 | [10] -0.072 | [11] 0.031

Continuation.

IARS (UniProt P41252)
inactive: [1] 0.155 | [2] -0.099 | [3] 0.136 | [4] 0.024 | [5] 0.071 | [6] 0.035 | [7] -0.009 | [8] 0.196 | [9] 0.38 | [10] -0.17 | [11] 0.15

HSPA5 (UniProt P11021)
inactive: [1] 0.008 | [2] -0.003 | [3] -0.001 | [4] 0.014 | [5] -0.009 | [6] -0.028 | [7] -0.044 | [8] -0.025 | [9] -0.007 | [10] -0.018 | [11] 0.012
